Hit rate of the full screen: of about 310,000 compounds, about 17,000 (5.5%) were called active. Inconclusive results, whose numbers are uncertain, are shown with a selection of clear calls. Calls follow the shape of the dose curve; as a rule, active = well fitted inhibition curve with a large enough effect; inconclusive = small, poorly fitted or top-dose-only effect, or effect the other way; inactive = no such curve, though single readings can be large or run the other way. Where the call is inconclusive, the potency comes from a doubtful curve fit.
These compounds were tested against Nuclear receptor ROR-gamma (Mus musculus) (UniProt P51450) (assay: qHTS for inhibitors of ROR gamma transcriptional activity). Settings: Drosophila S2 Gal4-RORgamma UAS-luciferase reporter, 20 h; activity change, negative = inhibition: at 53.6 µM (top of the series).
Summary of the method: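 Stably transfected Drosophila Schneider cells are the test system, with ROR gamma fused to Gal4 and luciferase under UAS control; luminescence is read after 20 hr of 700 uM copper sulfate induction at ambient temperature.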
% is scaled to controls: 0 for no effect and ±100 for the full control effect; potency is read from the fitted curve at half-maximal effect.
Also: nearly all actives have a fitted effect of over 60% in size.

The chains behind the UniProt entries cited, without tags or fusion partners. Where a name states a change or a piece, a line headed by the entry shows the natural chain unless it says otherwise.
UniProt P51450: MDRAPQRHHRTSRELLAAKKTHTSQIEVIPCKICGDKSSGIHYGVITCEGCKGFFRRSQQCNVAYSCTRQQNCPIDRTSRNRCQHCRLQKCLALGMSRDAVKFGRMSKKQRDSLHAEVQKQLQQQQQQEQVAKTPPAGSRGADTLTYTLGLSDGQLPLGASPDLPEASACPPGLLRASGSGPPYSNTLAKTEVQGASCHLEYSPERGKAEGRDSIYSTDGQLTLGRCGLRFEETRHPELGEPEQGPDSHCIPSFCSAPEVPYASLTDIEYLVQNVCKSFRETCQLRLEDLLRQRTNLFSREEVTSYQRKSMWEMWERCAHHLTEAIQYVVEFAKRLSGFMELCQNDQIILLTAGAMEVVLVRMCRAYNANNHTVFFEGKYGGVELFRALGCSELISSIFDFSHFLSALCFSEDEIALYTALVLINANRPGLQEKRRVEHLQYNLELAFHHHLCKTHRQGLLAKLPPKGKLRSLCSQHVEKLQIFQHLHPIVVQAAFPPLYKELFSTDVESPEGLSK

Row | SMILES | activity change, negative = inhibition | Potency
1 | CCCn1c(=S)[nH]c2cc(C(=O)N3CCN(C(=O)OCC)CC3)ccc2c1=O | inactive: -43.9% | 
2 | Cc1ccc(-c2nc(NC(=O)CSc3ccc4ccccc4n3)ns2)cc1 | inactive: -29.1% | 
3 | Cc1cc(C(=O)CSc2nc3ccccc3[nH]2)c(C)n1Cc1ccco1 |  | inconclusive: 31.6 µM [inhibitor, single point]
4 | COCCNC(=S)N/N=C(\C)c1ccc(Cl)s1 |  | active: 0.794 µM
5 | O=C1CCSc2ccc(Cl)cc2N1Cc1ccc(Cl)cc1 |  | inconclusive: 15.8 µM [activator, single point]
6 | Cc1csc(Nc2cccc3ccccc23)n1 |  | inconclusive: 25.1 µM [inhibitor, single point]
7 | COc1cc(CN2CCSCC2)c([N+](=O)[O-])cc1OC | inactive: 4.6% [at 1.91 µM] | 
8 | CC(C)C[C@H](N)c1nnc(S(=O)(=O)Cc2ccc(F)cc2)o1 | inactive: 0% | 
9 | CCc1cc(C(=O)N2CCCC(C(=O)c3cccc(OC(C)C)c3)C2)n(C)n1 (stereo unspecified) |  | inconclusive: 31.6 µM [activator, single point]
10 | Cc1cc(Br)c(OCc2ccc(C(=O)N/N=C3\CC4CC=CC34)cc2)c(Br)c1 (stereo unspecified) |  | active: 7.94 µM
11 | CCC1CCCCN1C(=O)CSc1nnc(-c2c[nH]c3ccccc23)o1 (stereo unspecified) | inactive: 2.73% | 
12 | Cc1[nH]c2ccccc2c1CCNC(=O)c1c(N)no[n+]1[O-] |  | inconclusive: 0.0501 µM [inhibitor, full curve, poor fit]
13 | O=C1CN(C(=O)CCCc2c[nH]c3ccccc23)c2ccccc2N1 |  | inconclusive: 25.1 µM [activator, single point]
14 | CN(C)C(=S)Nc1ccc(Br)c(Cl)c1 |  | inconclusive: 10 µM [inhibitor, partial curve]
15 | Cc1ccc(NC2CC(=O)N(CCc3ccccc3)C2=O)cc1 (stereo unspecified) |  | active: 3.98 µM
16 | FC(F)(F)c1nnc2ccc(NCc3ccccc3)nn12 |  | inconclusive: 6.31 µM [inhibitor, single point]
17 | COc1cccc(C2Nc3ccc4ccccc4c3C3=C2C(=O)CCC3)c1O (stereo unspecified) |  | inconclusive: 35.5 µM [inhibitor, single point]
18 | CSc1ccc(CNC(=O)Cc2ccc(NC(=O)C3=C(C)OCCS3)cc2)cc1 |  | inconclusive: 22.4 µM [inhibitor, single point]
19 | Cc1ccc(Nc2nc(NCCO)nc3c2cnn3C)cc1Cl |  | inconclusive: 11.2 µM [activator, partial curve]
20 | NC(=O)COC(=O)c1ccccc1OCc1ccc(Cl)cc1 | inactive: 20.2% | 
21 | COC(=O)CCC(=O)COc1ccc(OC)cc1C#N |  | inconclusive: 10 µM [activator, partial curve]

Quoted from the listing:
Under Potency, `COCCNC(=S)N/N=C(\C)c1ccc(Cl)s1` is entered as active: 0.794 µM
Under Potency, `Cc1cc(C(=O)CSc2nc3ccccc3[nH]2)c(C)n1Cc1ccco1` is entered as inconclusive: 31.6 µM [inhibitor, single point]
